Measured values from patent US20110020373A1.
No constants are given. Whether binding was seen depends on the method and setting. Some results given as binding are weak or reduced against the parent protein; the word gives no strength. Tags and fused reporters may be left off the sequences shown.

Sequences of proteins named here, by UniProt entry; tags and fusion partners are left off. A change or cut given only in a name is not applied to a line headed by its entry. Residues count along the entry.
UniProt P12319, residues 26-257: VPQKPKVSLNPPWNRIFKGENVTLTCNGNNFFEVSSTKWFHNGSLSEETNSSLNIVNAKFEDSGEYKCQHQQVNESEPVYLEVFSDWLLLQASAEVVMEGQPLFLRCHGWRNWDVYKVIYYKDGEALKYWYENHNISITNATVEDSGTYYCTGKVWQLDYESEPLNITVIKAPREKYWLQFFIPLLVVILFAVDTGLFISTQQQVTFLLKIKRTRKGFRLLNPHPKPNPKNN
UniProt Q01362: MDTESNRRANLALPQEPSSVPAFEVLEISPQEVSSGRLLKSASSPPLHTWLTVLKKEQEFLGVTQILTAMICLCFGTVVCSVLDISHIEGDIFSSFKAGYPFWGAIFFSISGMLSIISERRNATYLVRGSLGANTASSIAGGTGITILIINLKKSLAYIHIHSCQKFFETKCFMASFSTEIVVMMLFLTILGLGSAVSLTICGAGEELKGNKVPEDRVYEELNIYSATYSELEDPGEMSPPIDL
UniProt P30273: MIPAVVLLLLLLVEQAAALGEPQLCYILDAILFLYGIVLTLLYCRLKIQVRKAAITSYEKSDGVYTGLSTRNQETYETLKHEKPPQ

How the values were obtained:
[1] = target: human FcεRIα chain (human) (UniProt P12319); assay: flow cytometry on 3D10 cells, detected with FITC goat anti-human epsilon chain
[2] = target: human FcεRIα chain (human) (UniProt P12319); assay: flow cytometry on 3D10 cells (legend of FIG. 4F)
[3] = target: T1, entire FcεRI receptor complex on Ku812 cells (human) (UniProt P12319+Q01362+P30273); assay: flow cytometry on Ku812 cells, detected with FITC goat anti-human epsilon chain
[4] = target: T1, entire FcεRI receptor complex on Ku812 cells (human); assay: flow cytometry on Ku812 cells (legend of FIG. 4G)

Measured: binding

B1: EPL fusion protein (Fc Epsilon-PolyLysine protein) (protein)
chain: FTPPTVKILQSSCDGGGHFPPTIQLLCLVSGYTPGTINITWLEDGQVMDVDLSTASTTQEGELASTQSELTLSQKHWLSDRTYTCQVTYQGHTFEDSTKKCADSNPRGVSAYLSRPSPFDLFIRKSPTITCLVVDLAPSKGTVNLTWSRASGKPVNHSTRKEEKQRNGTLTVTSTLPVGTRDWIEGETYQCRVTHPHLPRALMRSTTKTSGPRAAPEVYAFATPEWPGSRDKRTLACLIQNFMPEDISVQWLHNEVQLPDARHSTTQPRKTKGSGFFVFSRLEVTRAEWEQKDEFICRAVHEAASPSQTVQRAVSVNPGKKKKKKKKKKKKKKKKKKKKKKKKKKKKKKKKKKKKKKKKKKKKKKKKKKKKKKKKKKKKK
binds: all assays above
